Our source for the cell number change and AC50 values is PubChem BioAssay AID2685 (National Center for Advancing Translational Sciences (NCATS), 2010).

This is one part of the list. The main result of the screen is listed elsewhere. These columns were measured beside it and carry no call. Compounds called inactive in the main read-out are mostly missing here. Words in brackets tell the shape of the fitted curve; partial curves, single points and poor fits give uncertain potencies.

A short description of the assay: qHTS Assay for Lipid Storage Modulators in Drosophila S3 Cells.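 As to cell number change: cells counted by Cell Tracker Red CMTPX staining in the red channel.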 The following applies: BODIPY lipid droplet fluorescence, 18-24 h; for cell number change: measured here: cell count max response, cells fed with added oleic acid. Summed up: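 Drosophila S3 cells got compounds at several concentrations plus oleic acid (400 uM solution). Laser-scanning cytometry with 488 nm excitation read lipid droplets at 500-530 nm and cells at 575-640 nm. Percent activity was relative to 20 uM Triacsin C.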
(In general: Quantitative high-throughput screening tests each substance at several concentrations.)

Setting [1] is: measured here: lipid fluorescence (Fed channel) AC50, cells fed with added oleic acid.
Setting [2] is: measured here: cell number channel AC50, cells fed with added oleic acid.

Turning to `O=C(OCC(=O)N1CCN(c2ccccc2)CC1)c1ccc[n+]([O-])c1`, the cell number change amounted to 16.4%. Also, the AC50 under setting [1] was 14.1 µM [rising, single point].

With `Cc1c(-c2ncn[nH]2)sc(C#N)c1-c1ccccc1`, the cell number change came to 65.6%. Moreover, the AC50 under setting [2] is 23.1 µM [rising, single point]. Besides, under setting [1], the AC50 is 6.51 µM [falling, partial curve].

Take `O=C(COC(=O)c1cc(=O)c2ccccc2o1)Nc1cc(Cl)ccc1Cl`: the cell number change amounted to 12.1%. Moreover, under setting [2], the AC50 is 0.116 µM [rising, partial curve, poor fit].

With `COc1ccc(C2(C)NC(=O)N(Cc3cc(Cl)cc4c3OCOC4)C2=O)cc1OC` (stereo unspecified), the cell number change is -18.4%. Further, the AC50 under setting [1] is 0.651 µM [rising, single point].

In the case of `COc1ccc(NC(=O)CCN2CCN(S(=O)(=O)c3cc(Cl)ccc3OC)CC2)cc1`, the cell number change worked out at 77.3%. The AC50 under setting [2] was 16.4 µM [rising, partial curve].

For `Cc1ccccc1Nc1nc(N)nc(COC(=O)c2ccc(S(=O)(=O)N(C)C)cc2)n1`, the cell number change is -0.883%. Moreover, the AC50 under setting [1] was 1.64 µM [rising, partial curve].

Turning to `O=C(NNC(=O)c1ccc(Cl)s1)c1csc(N2CCOCC2)n1`, the cell number change stood at 85.2%. In addition, the AC50 under setting [2] is 29.1 µM [rising, single point].

Turning to `Cc1cc(C)n(CC(=O)c2cccc(N)c2)n1`, the cell number change stood at 176%.

As for `O=C1CN(C(=O)CSc2nc3ccccc3n2CCc2ccccc2)c2ccccc2N1`, the cell number change came to 11.5%.

`Cc1cccc(Sc2ccc([N+](=O)[O-])cc2[N+](=O)[O-])n1`: the AC50 under setting [1] is 29.1 µM [falling, single point].

For the molecule `O=C(COc1ccc2oc(-c3ccccc3)cc(=O)c2c1)NCc1ccco1`, the cell number change was -82.4%. The AC50 under setting [2] was 14.6 µM [falling, partial curve]. For the same molecule, the AC50 under setting [1] is 20.6 µM [falling, partial curve, poor fit].

On to `COC(=O)c1ccc(-c2sc3nc(N4CCOCC4)c4c(c3c2N)CCCC4)o1`, for which the cell number change amounted to 49.8%. Further, under setting [2], the AC50 was 0.082 µM [rising, full curve]. Moreover, the AC50 under setting [1] is 0.116 µM [rising, full curve].

For the molecule `Nc1ccc(Br)cc1-c1nc2ccccc2[nH]c1=O`, the cell number change was -10.9%. Also, the AC50 under setting [1] is 0.00411 µM [rising, full curve, poor fit].

Consider `N#Cc1nc(-c2ccc(OCc3ccccc3)cc2)oc1N1CCOCC1`, for which the cell number change was 17.7%. Further, the AC50 under setting [1] is 29.1 µM [rising, partial curve, poor fit].

As for `Cc1cc(N2CCCCCC2)nc2ccccc12`, the cell number change is -19.3%. In addition, under setting [1], the AC50 is 0.0058 µM [falling, full curve, poor fit].

Take `CC1CN(C(=O)COC(=O)c2cccs2)CC(C)O1` (stereo unspecified): the cell number change is -15.2%. For the same molecule, the AC50 under setting [1] is 16.4 µM [falling, partial curve].

On to `O=Cc1c(NCCc2ccc(F)cc2)c2ccccc2[nH]c1=O`, for which the cell number change is 23.3%. Also, under setting [1], the AC50 was 23.1 µM [falling, single point].

In the case of `CCOC(=O)CNC(=O)c1cnc(Nc2ccccc2OC)c2ccccc12`, the cell number change is 28.4%.

`COCCCN=C1NN=C(c2cc(C)n(-c3ccccc3)c2C)CS1`: the cell number change was 16.2%. Besides, the AC50 under setting [1] is 2.59 µM [rising, single point].

`O=C(Nc1cccc(-n2cnnn2)c1)c1ccc(Cl)cc1Cl`: the cell number change is -73.6%. For the same molecule, under setting [2], the AC50 is 25.9 µM [falling, single point]. Under setting [1], the AC50 is 29.1 µM [falling, single point].

Turning to `O=c1oc2ccccc2c2c1ncn2-c1ccccc1`, the cell number change is -10.6%. Further, the AC50 under setting [1] was 0.731 µM [falling, full curve, poor fit].

With `CSc1nnc(-c2ccccc2)c(=O)[nH]1`, the cell number change is -0.0698%.

Take `CCOC(=O)N1CCN(C(=O)c2ccc3c(=O)n(CC4CCCO4)c(=S)[nH]c3c2)CC1` (stereo unspecified): the cell number change was determined as 5.12%.

Regarding `COc1nccnc1NS(=O)(=O)c1ccc(NC(=O)c2cccc(C)c2)cc1`, the cell number change is -19.8%. The AC50 under setting [2] is 4.61 µM [falling, single point]. Also, the AC50 under setting [1] was 3.26 µM [falling, full curve].

For `O=C(Cc1c(F)cccc1Cl)NNC(=O)c1ccncc1`, the cell number change amounted to 14.1%. Moreover, the AC50 under setting [1] was 0.00461 µM [rising, full curve, poor fit].

Turning to `S=c1[nH]nc(COc2ccccc2)n1/N=C/c1cccnc1`, the AC50 under setting [1] was 29.1 µM [rising, single point].

On to `CC1CC(C)CN(C(=O)COC(=O)c2ccc3ncsc3c2)C1` (stereo unspecified), for which the cell number change amounted to 21%. The AC50 under setting [2] is 2.91 µM [falling, single point].

Take `O=C(CNC(=O)C1COc2ccccc2O1)N/N=C/c1ccc([N+](=O)[O-])cc1` (stereo unspecified): the cell number change was -12.7%. The AC50 under setting [1] is 29.1 µM [rising, single point].

Regarding `C#CCOCCOCCOCCNc1nc(N2CCN(C(=O)Cn3cc(CC(C)O)nn3)CC2)nc(N2CCN(C(=O)[C@H](CCCCN)n3cc(CCC(=O)O)nn3)CC2)n1` (stereo partly specified), the cell number change was found to be 8.81%. Also, the AC50 under setting [2] was 0.00517 µM [rising, full curve, poor fit].

In the case of `CCOC(=O)CCn1c(CC(=O)OCC)nc2ccccc21`, the cell number change was -13%. Besides, the half-maximal activity concentration (AC50) under setting [1] was 6.51 µM [rising, partial curve, poor fit].

Consider `C/C(=N\O)C1CCCCC1`, for which the cell number change was -11.7%. Also, under setting [1], the AC50 was 20.6 µM [falling, single point].

With `COC(=O)N/N=C/c1ccc([N+](=O)[O-])o1`, the cell number change is -28.8%. Besides, the AC50 under setting [1] was 18.4 µM [falling, partial curve].

Regarding `COc1ccc(Cc2nn3c(-c4ccccc4OC)nnc3s2)cc1`, the cell number change is 15.9%. Also, the AC50 under setting [1] is 0.58 µM [rising, single point].

Consider `CC(C)CC(NC(=O)c1ccc(Cl)cc1)C(=O)O` (stereo unspecified), for which the cell number change is 0.116%.

As to `O=C(NCCCCc1ccccc1)C1CCCC1`, the cell number change turned out to be 20.8%.

Consider `CCc1nn(CCCC(=O)NCc2cc(Br)ccc2OC)c(=O)c2cc3occc3n12`, for which the cell number change is -35.8%. Under setting [2], the AC50 was 29.1 µM [falling, single point].

As to `Cc1ccc(NC(=O)/C=N/OCC(=O)NCc2ccccc2Cl)cc1`, the cell number change was -14.8%. Further, under setting [1], the AC50 was 8.2 µM [falling, partial curve].

In the case of `Cc1ccc(Cn2ccc(NC(=O)c3cc(-c4ccc(Cl)cc4)on3)n2)cc1`, the cell number change is -10.3%.

For the molecule `CC(=O)c1ccc(OC(=O)COc2ccccc2)cc1`, the cell number change was -13%. The AC50 under setting [1] is 0.00517 µM [falling, full curve, poor fit].

In the case of `c1ccc(OCCOc2ncnc3ccccc23)cc1`, the cell number change is -6.13%.

With `CC(=O)c1c(N2CCN(Cc3ccccc3)CC2)[nH]c(-c2ccccc2)nc1=S`, the cell number change was -29%. Also, the AC50 under setting [1] was 0.82 µM [falling, partial curve, poor fit].

The AC50 is the concentration giving half of the maximal activity seen. Lower therefore signals greater potency.
